Some results were stated once for a whole list of compounds, not compound by compound.
Experiments:
3CLpro = 3CLpro (Severe acute respiratory syndrome coronavirus 2, UniProt P0DTD1); conditions: Rehman et al.; cited from earlier work
[1] = test system: lysosomal/endosomal pH of A549 cells; test: Endosomal/lysosomal pH assay in A549 cells; assay type: cell-based, human; conditions: 5.0-25 μg/ml; control approximately pH=5.0
[2] = test system: SARS-CoV-2 spike protein pseudo-typed virions; assay type: cell-based

SMILES | binding affinity at the SBP of 3CLpro (3CLpro) | lysosomal/endosomal pH [1] | concentration from which significant inhibition was seen [2] [µg/mL]
O=c1c(O)c(-c2ccc(O)cc2)oc2cc(O)cc(O)c12 [Kaemferol] | 10^5-10^6 M^−1 |  | 
O=c1c(O)c(-c2ccc(O)c(O)c2)oc2cc(O)cc(O)c12 [Quercetin] | 10^5-10^6 M^−1 |  | 
COc1cc(/C=C/C(=O)CC(=O)/C=C/c2ccc(O)c(OC)c2)ccc1O [Curcumin] |  | 6.0-6.5 pH | 
Oc1ccc2c(c1)OC[C@]1(O)Cc3cc(O)c(O)cc3[C@H]21 [Brazilin] |  | 6.0-6.5 pH | ≥ 10

From patent publication US20230321126A1 (priority 2020, published 2023)
